Test results: PMC11787510
Results are given in words; binding and its absence hold for the method and conditions named. Binding seen in cells or lysates may run through a third protein. Some results given as binding are weak or reduced against the parent protein; the word gives no strength. Tags and fused reporters may be left off the sequences shown.

Protein sequences, listed by entry. Tags and fused reporters are not part of them. Lines headed by an entry give the natural chain unless they say otherwise; changes in a name come on top. Chains listed by the source or under a name are the forms on record and can include a tag or linker.
Strep-GFP-tagged TSC2 (P49815, form named): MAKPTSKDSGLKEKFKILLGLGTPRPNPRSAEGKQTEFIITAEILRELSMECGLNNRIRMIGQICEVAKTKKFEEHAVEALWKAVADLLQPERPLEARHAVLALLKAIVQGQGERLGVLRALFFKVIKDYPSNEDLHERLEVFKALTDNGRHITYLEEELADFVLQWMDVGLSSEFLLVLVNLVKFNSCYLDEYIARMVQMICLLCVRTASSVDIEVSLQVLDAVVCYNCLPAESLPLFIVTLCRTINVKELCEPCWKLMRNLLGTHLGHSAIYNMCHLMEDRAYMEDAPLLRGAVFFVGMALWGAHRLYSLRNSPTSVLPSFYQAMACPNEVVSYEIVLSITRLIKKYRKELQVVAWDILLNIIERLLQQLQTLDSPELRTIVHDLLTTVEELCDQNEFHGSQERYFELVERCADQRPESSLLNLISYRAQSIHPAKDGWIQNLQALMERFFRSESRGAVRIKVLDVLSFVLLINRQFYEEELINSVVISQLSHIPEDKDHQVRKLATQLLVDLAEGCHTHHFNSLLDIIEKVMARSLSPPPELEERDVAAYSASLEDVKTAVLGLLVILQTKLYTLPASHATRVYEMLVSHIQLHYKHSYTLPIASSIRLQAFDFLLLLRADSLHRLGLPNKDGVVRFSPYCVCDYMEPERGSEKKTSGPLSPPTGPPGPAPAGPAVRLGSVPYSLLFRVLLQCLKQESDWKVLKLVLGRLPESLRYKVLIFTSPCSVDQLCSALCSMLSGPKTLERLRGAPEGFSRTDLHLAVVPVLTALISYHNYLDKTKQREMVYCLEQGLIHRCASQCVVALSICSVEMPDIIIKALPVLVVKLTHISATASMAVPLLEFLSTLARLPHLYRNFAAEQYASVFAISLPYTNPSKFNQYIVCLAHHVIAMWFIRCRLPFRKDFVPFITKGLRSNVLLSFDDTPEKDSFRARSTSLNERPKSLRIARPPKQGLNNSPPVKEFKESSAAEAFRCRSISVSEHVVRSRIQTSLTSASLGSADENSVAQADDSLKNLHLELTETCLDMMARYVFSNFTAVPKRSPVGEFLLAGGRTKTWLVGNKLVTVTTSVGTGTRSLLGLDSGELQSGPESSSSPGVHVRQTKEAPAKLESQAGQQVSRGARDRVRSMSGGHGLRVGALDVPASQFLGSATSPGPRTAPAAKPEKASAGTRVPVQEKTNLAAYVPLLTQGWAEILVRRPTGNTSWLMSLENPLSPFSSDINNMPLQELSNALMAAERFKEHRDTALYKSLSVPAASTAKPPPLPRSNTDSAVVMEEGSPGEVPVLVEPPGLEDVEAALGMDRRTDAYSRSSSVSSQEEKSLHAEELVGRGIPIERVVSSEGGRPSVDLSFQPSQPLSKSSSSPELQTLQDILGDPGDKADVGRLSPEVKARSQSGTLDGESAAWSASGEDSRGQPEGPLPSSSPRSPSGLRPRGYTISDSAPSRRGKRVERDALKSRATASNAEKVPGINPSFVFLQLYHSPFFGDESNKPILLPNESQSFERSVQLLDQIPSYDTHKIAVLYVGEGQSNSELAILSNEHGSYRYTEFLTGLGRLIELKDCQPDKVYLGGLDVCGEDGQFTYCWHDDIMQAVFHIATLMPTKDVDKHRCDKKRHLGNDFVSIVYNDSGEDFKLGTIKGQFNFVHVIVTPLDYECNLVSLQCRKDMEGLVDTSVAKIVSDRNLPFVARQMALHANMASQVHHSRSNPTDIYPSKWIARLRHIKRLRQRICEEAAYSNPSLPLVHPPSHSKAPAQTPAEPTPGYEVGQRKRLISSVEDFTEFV

Molecular target: Strep-GFP-tagged TSC2 (UniProt P49815)
Assay: co-IP; lysate with Strep-GFP-TSC2 mixed with lysate with TSC1-myc and HiBiT-Rheb, without or with 5.5 μM His-CaM (WT or DA) and 100 μM CaCl2; IP with anti-GFP antibody, Western blot with myc and anti-GFP antibodies

binding: binds
B1: myc-tagged TSC1 (protein, UniProt Q92574 1-1164)
chain: MAQQANVGELLAMLDSPMLGVRDDVTAVFKENLNSDRGPMLVNTLVDYYLETSSQPALHILTTLQEPHDKHLLDRINEYVGKAATRLSILSLLGHVIRLQPSWKHKLSQAPLLPSLLKCLKMDTDVVVLTTGVLVLITMLPMIPQSGKQHLLDFFDIFGRLSSWCLKKPGHVAEVYLVHLHASVYALFHRLYGMYPCNFVSFLRSHYSMKENLETFEEVVKPMMEHVRIHPELVTGSKDHELDPRRWKRLETHDVVIECAKISLDPTEASYEDGYSVSHQISARFPHRSADVTTSPYADTQNSYGCATSTPYSTSRLMLLNMPGQLPQTLSSPSTRLITEPPQATLWSPSMVCGMTTPPTSPGNVPPDLSHPYSKVFGTTAGGKGTPLGTPATSPPPAPLCHSDDYVHISLPQATVTPPRKEERMDSARPCLHRQHHLLNDRGSEEPPGSKGSVTLSDLPGFLGDLASEEDSIEKDKEEAAISRELSEITTAEAEPVVPRGGFDSPFYRDSLPGSQRKTHSAASSSQGASVNPEPLHSSLDKLGPDTPKQAFTPIDLPCGSADESPAGDRECQTSLETSIFTPSPCKIPPPTRVGFGSGQPPPYDHLFEVALPKTAHHFVIRKTEELLKKAKGNTEEDGVPSTSPMEVLDRLIQQGADAHSKELNKLPLPSKSVDWTHFGGSPPSDEIRTLRDQLLLLHNQLLYERFKRQQHALRNRRLLRKVIKAAALEEHNAAMKDQLKLQEKDIQMWKVSLQKEQARYNQLQEQRDTMVTKLHSQIRQLQHDREEFYNQSQELQTKLEDCRNMIAELRIELKKANNKVCHTELLLSQVSQKLSNSESVQQQMEFLNRQLLVLGEVNELYLEQLQNKHSDTTKEVEMMKAAYRKELEKNRSHVLQQTQRLDTSQKRILELESHLAKKDHLLLEQKKYLEDVKLQARGQLQAAESRYEAQKRITQVFELEILDLYGRLEKDGLLKKLEEEKAEAAEAAEERLDCCNDGCSDSMVGHNEEASGHNGETKTPRPSSARGSSGSRGGGGSSSSSSELSTPEKPPHQRAGPFSSRWETTMGEASASIPTTVGSLPSSKSFLGMKARELFRNKSESQCDEDGMTSSLSESLKTELGKDLGVEAKIPLNLDGPHPSPPTPDSVGQLHIMDYNETHHEHS
